# Laboratory results published in the supplement of paper PMC6411743.
# ± gives the standard deviation of the averaged measurements. The list shows a part of the results.
# What was measured:
# Test in all cases: NP40-soluble protein abundance relative to vehicle (solubility fold change) (ratio); higher = more soluble protein in presence of GTP
# [1] = biological target: T1, A0A0C4DFN1|Q8IWA4 and related entries (UniProt Q8IWA4)
# T1 sequence (whole entry): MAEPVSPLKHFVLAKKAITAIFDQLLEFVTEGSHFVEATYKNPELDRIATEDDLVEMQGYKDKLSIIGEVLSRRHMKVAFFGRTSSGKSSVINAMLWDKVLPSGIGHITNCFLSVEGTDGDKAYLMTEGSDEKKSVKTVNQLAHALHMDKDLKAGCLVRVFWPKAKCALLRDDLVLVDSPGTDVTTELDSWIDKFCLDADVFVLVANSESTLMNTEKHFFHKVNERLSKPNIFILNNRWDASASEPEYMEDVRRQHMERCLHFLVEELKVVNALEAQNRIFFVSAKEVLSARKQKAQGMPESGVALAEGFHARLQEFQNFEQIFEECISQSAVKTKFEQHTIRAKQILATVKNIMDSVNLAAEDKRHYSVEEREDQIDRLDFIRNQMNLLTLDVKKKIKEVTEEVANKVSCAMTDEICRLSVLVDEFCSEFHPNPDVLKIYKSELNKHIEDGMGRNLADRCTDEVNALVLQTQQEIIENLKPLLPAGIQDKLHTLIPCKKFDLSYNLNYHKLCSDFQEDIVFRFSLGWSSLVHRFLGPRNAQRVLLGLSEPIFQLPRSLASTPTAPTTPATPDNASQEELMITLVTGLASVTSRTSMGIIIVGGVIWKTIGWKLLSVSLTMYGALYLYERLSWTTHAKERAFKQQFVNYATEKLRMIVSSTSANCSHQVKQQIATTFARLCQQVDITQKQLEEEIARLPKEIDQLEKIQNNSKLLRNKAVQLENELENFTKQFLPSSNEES
# Summary of the method: (§1)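 Eight concentrations, 0.1 to 10 mM, were tested on Jurkat crude lysate for 10 min at room temperature and then 3 min at 37 °C, in three independent experiments. The lysate was solubilised with 0.8% NP40 and benzonase, ultracentrifuged, and the supernatant TMT-labelled for LC-MS/MS. Each value is the fold change against the detergent-processed vehicle in its own replicate, from vsn-normalised intensities.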
# A0A0C4DFX7|Q9H967 = biological target: T2, A0A0C4DFX7|Q9H967 (UniProt Q9H967)
# T2 sequence (whole entry): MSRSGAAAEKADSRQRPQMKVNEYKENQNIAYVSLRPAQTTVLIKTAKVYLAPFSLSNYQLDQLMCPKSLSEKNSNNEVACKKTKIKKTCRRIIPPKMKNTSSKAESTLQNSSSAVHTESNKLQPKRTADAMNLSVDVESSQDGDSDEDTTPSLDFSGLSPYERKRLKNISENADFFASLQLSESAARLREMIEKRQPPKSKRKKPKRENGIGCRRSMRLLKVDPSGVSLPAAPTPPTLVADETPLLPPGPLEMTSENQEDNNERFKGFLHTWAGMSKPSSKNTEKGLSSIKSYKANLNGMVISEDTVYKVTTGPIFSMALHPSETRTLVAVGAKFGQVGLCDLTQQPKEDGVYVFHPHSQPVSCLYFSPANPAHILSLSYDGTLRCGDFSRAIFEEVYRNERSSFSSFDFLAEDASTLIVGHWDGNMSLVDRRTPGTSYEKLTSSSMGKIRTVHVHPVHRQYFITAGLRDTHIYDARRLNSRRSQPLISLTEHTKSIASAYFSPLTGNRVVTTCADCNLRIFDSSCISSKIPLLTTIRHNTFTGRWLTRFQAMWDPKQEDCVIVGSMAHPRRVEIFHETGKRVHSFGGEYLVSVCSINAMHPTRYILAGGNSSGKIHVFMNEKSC
# Summary of the method: as §1
# A0A0C4DG89|Q7L014 = biological target: T3, A0A0C4DG89|Q7L014 (UniProt Q7L014)
# T3 sequence (whole entry): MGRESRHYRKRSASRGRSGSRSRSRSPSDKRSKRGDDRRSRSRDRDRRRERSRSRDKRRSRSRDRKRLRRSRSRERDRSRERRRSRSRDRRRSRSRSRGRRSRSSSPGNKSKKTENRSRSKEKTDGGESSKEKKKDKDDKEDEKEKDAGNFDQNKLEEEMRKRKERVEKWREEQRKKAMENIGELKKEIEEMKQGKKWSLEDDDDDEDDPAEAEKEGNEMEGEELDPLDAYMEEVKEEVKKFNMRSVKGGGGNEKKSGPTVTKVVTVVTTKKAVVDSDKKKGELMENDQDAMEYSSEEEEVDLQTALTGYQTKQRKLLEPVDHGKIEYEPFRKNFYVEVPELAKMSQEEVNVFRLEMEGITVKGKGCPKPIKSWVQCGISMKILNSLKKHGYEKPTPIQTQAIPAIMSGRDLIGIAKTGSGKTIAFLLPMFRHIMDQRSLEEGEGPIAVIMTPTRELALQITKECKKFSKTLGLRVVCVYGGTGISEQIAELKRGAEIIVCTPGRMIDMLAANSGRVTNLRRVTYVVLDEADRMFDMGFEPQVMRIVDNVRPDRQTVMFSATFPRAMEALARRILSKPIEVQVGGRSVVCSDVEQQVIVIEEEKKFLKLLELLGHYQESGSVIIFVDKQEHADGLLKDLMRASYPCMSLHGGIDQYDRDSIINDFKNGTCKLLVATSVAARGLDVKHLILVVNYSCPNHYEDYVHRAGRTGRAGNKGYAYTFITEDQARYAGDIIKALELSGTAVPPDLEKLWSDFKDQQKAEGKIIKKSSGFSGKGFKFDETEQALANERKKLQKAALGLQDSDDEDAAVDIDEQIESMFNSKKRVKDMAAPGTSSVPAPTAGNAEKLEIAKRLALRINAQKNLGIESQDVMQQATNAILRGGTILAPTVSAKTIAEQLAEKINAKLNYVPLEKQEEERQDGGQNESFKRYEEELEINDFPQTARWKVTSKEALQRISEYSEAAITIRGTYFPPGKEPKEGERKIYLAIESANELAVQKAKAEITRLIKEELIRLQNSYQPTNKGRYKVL
# Summary of the method: as §1
# A0A0U1RR49|P53992 = biological target: T4, A0A0U1RR49|P53992 (UniProt P53992)
# T4 sequence (whole entry): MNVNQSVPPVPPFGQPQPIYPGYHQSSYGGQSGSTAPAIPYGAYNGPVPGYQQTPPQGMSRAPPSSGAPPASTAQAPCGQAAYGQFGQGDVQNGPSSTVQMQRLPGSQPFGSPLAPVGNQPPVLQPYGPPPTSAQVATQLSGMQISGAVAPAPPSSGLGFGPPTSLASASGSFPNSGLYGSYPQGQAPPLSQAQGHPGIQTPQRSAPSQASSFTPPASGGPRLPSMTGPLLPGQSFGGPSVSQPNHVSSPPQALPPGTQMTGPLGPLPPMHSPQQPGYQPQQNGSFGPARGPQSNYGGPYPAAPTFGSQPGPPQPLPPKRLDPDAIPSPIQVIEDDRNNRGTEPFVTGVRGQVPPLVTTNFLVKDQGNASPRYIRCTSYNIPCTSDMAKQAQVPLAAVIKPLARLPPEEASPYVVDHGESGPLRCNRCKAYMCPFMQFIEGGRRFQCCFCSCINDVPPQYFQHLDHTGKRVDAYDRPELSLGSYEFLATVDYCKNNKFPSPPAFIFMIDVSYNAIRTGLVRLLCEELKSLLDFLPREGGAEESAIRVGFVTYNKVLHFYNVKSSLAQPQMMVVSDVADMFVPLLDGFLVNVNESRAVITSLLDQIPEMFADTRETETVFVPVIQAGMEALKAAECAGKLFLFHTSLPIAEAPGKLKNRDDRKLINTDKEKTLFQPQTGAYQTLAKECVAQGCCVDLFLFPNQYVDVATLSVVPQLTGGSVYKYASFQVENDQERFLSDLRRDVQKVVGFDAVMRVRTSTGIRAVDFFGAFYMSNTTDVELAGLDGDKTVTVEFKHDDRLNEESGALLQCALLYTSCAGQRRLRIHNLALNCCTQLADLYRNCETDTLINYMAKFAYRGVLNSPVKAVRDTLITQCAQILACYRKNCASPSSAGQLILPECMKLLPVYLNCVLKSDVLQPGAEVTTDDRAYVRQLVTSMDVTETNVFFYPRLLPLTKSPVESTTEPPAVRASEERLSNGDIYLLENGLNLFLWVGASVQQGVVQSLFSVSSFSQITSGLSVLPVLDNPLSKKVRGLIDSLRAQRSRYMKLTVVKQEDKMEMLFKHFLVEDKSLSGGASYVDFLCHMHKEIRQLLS
# Summary of the method: as §1
smiles,measurement,setting,value
Nc1nc2c(ncn2[C@@H]2O[C@H](COP(=O)(O)OP(=O)(O)OP(=O)(O)O)[C@@H](O)[C@H]2O)c(=O)[nH]1 [guanosine triphosphate],NP40-soluble protein abundance,[1]; concentration: 8mM,1 ± 0.048
same,NP40-soluble protein abundance,[1]; concentration: 10mM,0.919 ± 0.043
same,NP40-soluble protein abundance,A0A0C4DFX7|Q9H967; concentration: 0.1mM,1.08 ± 0.091
same,NP40-soluble protein abundance,A0A0C4DFX7|Q9H967; concentration: 0.5mM,0.947 ± 0.049
same,NP40-soluble protein abundance,A0A0C4DFX7|Q9H967; concentration: 1mM,1.13 ± 0.18
same,NP40-soluble protein abundance,A0A0C4DFX7|Q9H967; concentration: 2mM,1.16 ± 0.1
same,NP40-soluble protein abundance,A0A0C4DFX7|Q9H967; concentration: 4mM,1.28 ± 0.073
same,NP40-soluble protein abundance,A0A0C4DFX7|Q9H967; concentration: 6mM,1.26 ± 0.067
same,NP40-soluble protein abundance,A0A0C4DFX7|Q9H967; concentration: 8mM,1.34 ± 0.19
same,NP40-soluble protein abundance,A0A0C4DFX7|Q9H967; concentration: 10mM,1.33 ± 0.13
same,NP40-soluble protein abundance,A0A0C4DG89|Q7L014; concentration: 0.1mM,1 ± 0.023
same,NP40-soluble protein abundance,A0A0C4DG89|Q7L014; concentration: 0.5mM,1.06 ± 0.042
same,NP40-soluble protein abundance,A0A0C4DG89|Q7L014; concentration: 1mM,1.06 ± 0.022
same,NP40-soluble protein abundance,A0A0C4DG89|Q7L014; concentration: 2mM,0.99 ± 0.021
same,NP40-soluble protein abundance,A0A0C4DG89|Q7L014; concentration: 4mM,0.966 ± 0.016
same,NP40-soluble protein abundance,A0A0C4DG89|Q7L014; concentration: 6mM,0.988 ± 0.019
same,NP40-soluble protein abundance,A0A0C4DG89|Q7L014; concentration: 8mM,1.03 ± 0.033
same,NP40-soluble protein abundance,A0A0C4DG89|Q7L014; concentration: 10mM,0.996 ± 0.037
same,NP40-soluble protein abundance,A0A0U1RR49|P53992; concentration: 0.1mM,1.021 ± 0.0092
same,NP40-soluble protein abundance,A0A0U1RR49|P53992; concentration: 0.5mM,1.03 ± 0.019
same,NP40-soluble protein abundance,A0A0U1RR49|P53992; concentration: 1mM,0.97 ± 0.016
same,NP40-soluble protein abundance,A0A0U1RR49|P53992; concentration: 2mM,0.959 ± 0.028
same,NP40-soluble protein abundance,A0A0U1RR49|P53992; concentration: 4mM,0.9771 ± 0.0036
same,NP40-soluble protein abundance,A0A0U1RR49|P53992; concentration: 6mM,0.957 ± 0.019
same,NP40-soluble protein abundance,A0A0U1RR49|P53992; concentration: 8mM,0.932 ± 0.011
same,NP40-soluble protein abundance,A0A0U1RR49|P53992; concentration: 10mM,0.918 ± 0.037

# Random excerpt: 2 entries already listed, in no set order.
smiles,measurement,setting,value
Nc1nc2c(ncn2[C@@H]2O[C@H](COP(=O)(O)OP(=O)(O)OP(=O)(O)O)[C@@H](O)[C@H]2O)c(=O)[nH]1 [guanosine triphosphate],NP40-soluble protein abundance,A0A0C4DG89|Q7L014; concentration: 6mM,0.988 ± 0.019
same,NP40-soluble protein abundance,A0A0C4DFX7|Q9H967; concentration: 4mM,1.28 ± 0.073
